Taken from: PubChem BioAssay AID1259405 (NCATS, 2018)
This is one part, drawn at random, of about 50,000 reagents. In the full data, about 4,000 (8%) got an active call. 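Mouse siRNA library applied to hamster cells; one well for each siRNA.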 Reagents against one gene are numbered here.

Assay: 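Knock-downs that lift recombinant protein yield in hamster ovary cells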 (primary screen)
System: Chinese hamster CHO-K1 ovary cells with stable secreted eGFP expression
Reagents: single siRNA against mouse genes, 0.8 pmol siRNA per well (2 µl of 400 nM stock)
Time to read-out: 3 days
Measurement: 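Percent of the per-plate non-targeting control median for intracellular GFP per well by laser scanning cytometry and for cell viability by ATP luminescence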
Direction: GFP, % of control: higher = more GFP per well, higher productivity; viability (ATP), % of control: higher = more viable cells (more ATP)
Rule for the call: 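Called active when intracellular GFP, relative to negative control, is at or above 120%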

{"gene": "Tpm3 (GeneID 59069)", "siRNA no.": 1, "GFP, % of control": 56.8, "viability (ATP), % of control": 58.2, "activity call": "inactive"}
{"gene": "Tpm3 (GeneID 59069)", "siRNA no.": 2, "GFP, % of control": 69, "viability (ATP), % of control": 58, "activity call": "inactive"}
{"gene": "Tpm3 (GeneID 59069)", "siRNA no.": 3, "GFP, % of control": 43.8, "viability (ATP), % of control": 45.4, "activity call": "inactive"}
{"gene": "Gas2 (GeneID 14453)", "siRNA no.": 1, "GFP, % of control": 64.4, "viability (ATP), % of control": 71.8, "activity call": "inactive"}
{"gene": "Gas2 (GeneID 14453)", "siRNA no.": 2, "GFP, % of control": 41.6, "viability (ATP), % of control": 38.7, "activity call": "inactive"}
{"gene": "Gas2 (GeneID 14453)", "siRNA no.": 3, "GFP, % of control": 111, "viability (ATP), % of control": 109, "activity call": "inactive"}
{"gene": "Gpsm2 (GeneID 76123)", "siRNA no.": 1, "GFP, % of control": 109, "viability (ATP), % of control": 93.6, "activity call": "inactive"}
{"gene": "Gpsm2 (GeneID 76123)", "siRNA no.": 2, "GFP, % of control": 52.5, "viability (ATP), % of control": 53.7, "activity call": "inactive"}
{"gene": "Gpsm2 (GeneID 76123)", "siRNA no.": 3, "GFP, % of control": 64.1, "viability (ATP), % of control": 32.7, "activity call": "inactive"}

Targets listed so far whose gene name starts with G or g (6):
{"gene": "Gas2 (GeneID 14453)", "siRNA no.": 1, "GFP, % of control": 64.4, "viability (ATP), % of control": 71.8, "activity call": "inactive"}
{"gene": "Gas2 (GeneID 14453)", "siRNA no.": 2, "GFP, % of control": 41.6, "viability (ATP), % of control": 38.7, "activity call": "inactive"}
{"gene": "Gas2 (GeneID 14453)", "siRNA no.": 3, "GFP, % of control": 111, "viability (ATP), % of control": 109, "activity call": "inactive"}
{"gene": "Gpsm2 (GeneID 76123)", "siRNA no.": 1, "GFP, % of control": 109, "viability (ATP), % of control": 93.6, "activity call": "inactive"}
{"gene": "Gpsm2 (GeneID 76123)", "siRNA no.": 2, "GFP, % of control": 52.5, "viability (ATP), % of control": 53.7, "activity call": "inactive"}
{"gene": "Gpsm2 (GeneID 76123)", "siRNA no.": 3, "GFP, % of control": 64.1, "viability (ATP), % of control": 32.7, "activity call": "inactive"}

Continued.
{"gene": "Tnnc2 (GeneID 21925)", "siRNA no.": 1, "GFP, % of control": 32.7, "viability (ATP), % of control": 37.9, "activity call": "inactive"}
{"gene": "Tnnc2 (GeneID 21925)", "siRNA no.": 2, "GFP, % of control": 97.2, "viability (ATP), % of control": 113, "activity call": "inactive"}
{"gene": "Ptpn6 (GeneID 15170)", "siRNA no.": 1, "GFP, % of control": 110, "viability (ATP), % of control": 79.3, "activity call": "inactive"}
{"gene": "Ptpn6 (GeneID 15170)", "siRNA no.": 2, "GFP, % of control": 83, "viability (ATP), % of control": 65.4, "activity call": "inactive"}
{"gene": "Ptpn6 (GeneID 15170)", "siRNA no.": 3, "GFP, % of control": 66.3, "viability (ATP), % of control": 66.6, "activity call": "inactive"}
{"gene": "Fam185a (GeneID 330050)", "siRNA no.": 1, "GFP, % of control": 49, "viability (ATP), % of control": 41.2, "activity call": "inactive"}
{"gene": "Fam185a (GeneID 330050)", "siRNA no.": 2, "GFP, % of control": 65.4, "viability (ATP), % of control": 86.7, "activity call": "inactive"}
{"gene": "Fam185a (GeneID 330050)", "siRNA no.": 3, "GFP, % of control": 59.7, "viability (ATP), % of control": 77.6, "activity call": "inactive"}
{"gene": "Pex16 (GeneID 18633)", "siRNA no.": 1, "GFP, % of control": 64.4, "viability (ATP), % of control": 75.2, "activity call": "inactive"}
{"gene": "Pex16 (GeneID 18633)", "siRNA no.": 2, "GFP, % of control": 180, "viability (ATP), % of control": 35, "activity call": "active"}
{"gene": "Pex16 (GeneID 18633)", "siRNA no.": 3, "GFP, % of control": 90.8, "viability (ATP), % of control": 78.2, "activity call": "inactive"}
{"gene": "Cdkal1 (GeneID 68916)", "siRNA no.": 1, "GFP, % of control": 82, "viability (ATP), % of control": 95.9, "activity call": "inactive"}
{"gene": "Cdkal1 (GeneID 68916)", "siRNA no.": 2, "GFP, % of control": 71.6, "viability (ATP), % of control": 81.1, "activity call": "inactive"}
{"gene": "Cdkal1 (GeneID 68916)", "siRNA no.": 3, "GFP, % of control": 69.1, "viability (ATP), % of control": 88.5, "activity call": "inactive"}
{"gene": "Fkrp (GeneID 243853)", "siRNA no.": 1, "GFP, % of control": 64.8, "viability (ATP), % of control": 85.9, "activity call": "inactive"}
{"gene": "Fkrp (GeneID 243853)", "siRNA no.": 2, "GFP, % of control": 117, "viability (ATP), % of control": 70.1, "activity call": "inactive"}
{"gene": "Fkrp (GeneID 243853)", "siRNA no.": 3, "GFP, % of control": 97.4, "viability (ATP), % of control": 80, "activity call": "inactive"}
{"gene": "Wfs1 (GeneID 22393)", "siRNA no.": 1, "GFP, % of control": 90.3, "viability (ATP), % of control": 67.3, "activity call": "inactive"}
{"gene": "Wfs1 (GeneID 22393)", "siRNA no.": 2, "GFP, % of control": 44.5, "viability (ATP), % of control": 59, "activity call": "inactive"}
{"gene": "Wfs1 (GeneID 22393)", "siRNA no.": 3, "GFP, % of control": 79.6, "viability (ATP), % of control": 76.8, "activity call": "inactive"}
